The match of structure and compound is tentative.
Target: human recombinant PDE5 (Homo sapiens, UniProt O76074)
Test: cGMP-PDE one-step inhibition assay, human recombinant PDE5
Type: biochemical
Conditions: read-out: PDE5 IC50, 0.15 μM 8-[H3]-cGMP, 30 min incubation

## O=C1[C@H]2Cc3c([nH]c4ccccc34)[C@@H](c3ccc4occc4c3)N2C(=O)CN1CCn1cccn1
  IC50: 100 nM

— patent US6911542B2, “Pyrazino[1′,2′:1,6]pyrido[3,4b]indole derivatives” (Lilly Icos LLC., priority 2000, dated 2005)
